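Viability assay of Plasmodium falciparum sporozoites; the read-out is not stated. The concentration is filed as 10 mM, unlikely as a test dose, so the dose is not known. Direction is inferred from retests: higher values go with lower viability. Strong results were mostly tested again. Size under these conditions: about 34,000 compounds, about 280 of them at 50% or above in at least one test.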

The filed quantity is “Percent Effect” (%). The record does not define 0% and 100%; most values in the screen are far below 50% and negative numbers occur (in some assays of this library far below -100). The compounds are a random part of those screened. Two or more numbers in one place are separate tests of the same structure; such repeats can differ widely.

{"smiles": "CC(C(=O)N1CCCN(c2ccc(C#N)cc2)CC1)n1ccnc1", "stereo": "stereo unspecified", "effect": -4.946}
{"smiles": "Fc1cccc(CNCC2OCCc3cn(CC4CCOCC4)nc32)c1.O=C(O)C(F)(F)F", "stereo": "stereo unspecified", "effect": -1.852}
{"smiles": "CN1CC2(COCCN(C(=O)c3ccco3)C2)OCC1=O", "stereo": "stereo unspecified", "effect": "10.93 and -26.32 and -19.32"}
{"smiles": "Cc1cc(C)n(C2CCCN(C(=O)CCNc3ncccn3)C2)n1", "stereo": "stereo unspecified", "effect": -5.608}
{"smiles": "CN(C)C(=O)C1(c2cnccn2)CCCN1C(=O)Cc1ccsc1", "stereo": "stereo unspecified", "effect": 5.721}
{"smiles": "Cn1cccc1C(=O)N1CCC2(CC1)CN(c1ccccn1)CCO2.O=C(O)C(F)(F)F", "effect": -18.32}
{"smiles": "CC(Nc1cccc(Oc2ccc(C#N)cn2)c1)C(=O)NC1CC1", "stereo": "stereo unspecified", "effect": -12.76}
{"smiles": "COCCOCC(=O)Nc1cccc(CN(C)C(C)=O)c1", "effect": 11.37}
{"smiles": "COc1cc(CNC(=O)N(Cc2ccc(F)cc2F)C2CC2)ccn1", "effect": 2.721}
{"smiles": "Nc1nc(CCC(=O)N2CCOC(CC3CCCCC3)C2)cs1", "stereo": "stereo unspecified", "effect": -5.717}
{"smiles": "CCNC(c1ccc(C)cc1)c1cccnc1", "stereo": "stereo unspecified", "effect": -1.394}
{"smiles": "O=C(c1cc(-n2cccc2)ccc1Cl)N1CCC2(CC1)OCCO2", "effect": -0.5637}
{"smiles": "CCN1CCN(c2ccccc2NC(=O)NCc2ccon2)CC1", "effect": 4.931}
{"smiles": "CCc1cnc(CN(C)C2CCN(CC(=O)Nc3nccs3)C2)o1", "stereo": "stereo unspecified", "effect": 6.474}
{"smiles": "CCN1CCN(C2CCN(CCOc3ccc(F)cc3)CC2)C1=O", "effect": -1.301}
{"smiles": "CN(Cc1cccs1)C(=O)CS(=O)(=O)Cc1ccc(Cl)c(Cl)c1", "effect": -0.6936}
{"smiles": "[H][C@@]12CCCO[C@]1([H])[C@H](NC(=O)C1CC1)CN2Cc1ccc2c(c1)OCO2", "effect": -9.199}
{"smiles": "Cn1cnc(S(=O)(=O)N2CCCC2c2ccnc3nccn23)c1", "stereo": "stereo unspecified", "effect": 0.7058}
{"smiles": "CCOc1ccccc1-c1noc(CN2CCCC(O)C2)n1", "stereo": "stereo unspecified", "effect": -2.312}
{"smiles": "Cc1cnn(CC2CCCCN2C(=O)c2csc(C)n2)c1", "stereo": "stereo unspecified", "effect": 2.221}
{"smiles": "COC(=O)c1ccc(N2CCN(C(=O)c3ccncc3)C(C)C2)cc1", "stereo": "stereo unspecified", "effect": 14.56}
{"smiles": "Cc1cnn(CC2CCCN2C(=O)c2cccc3c2OCO3)c1", "stereo": "stereo unspecified", "effect": 1.115}
{"smiles": "O=C(O)C(F)(F)F.O=C(O)C(F)(F)F.[H][C@@]12CN(Cc3nccs3)C[C@@]1([H])N(Cc1ccncc1)C(=O)CO2", "effect": -21.41}
{"smiles": "CC(C)(C)c1nc(CN(Cc2cccs2)C2CCS(=O)(=O)C2)no1", "stereo": "stereo unspecified", "effect": 16.06}
{"smiles": "COCCN1CCC2(CCCN(Cc3ccoc3)C2)C1=O.O=C(O)C(F)(F)F", "stereo": "stereo unspecified", "effect": -5.415}
{"smiles": "O=C(Nc1nccs1)NC1CCN(Cc2ccccc2)C1", "stereo": "stereo unspecified", "effect": 13.69}
{"smiles": "O=C(O)C(F)(F)F.O=C(O)C(F)(F)F.[H][C@@]12C[C@H](C(=O)NCC3CC3)N(C)[C@]1([H])CN(Cc1ccsc1)C2", "effect": 4.332}
{"smiles": "COCCCNC(=O)CN(C)C(=O)c1ccc(-n2cccc2)cc1O", "effect": -1.162}
{"smiles": "CCn1nnc2c1C(COCC(=O)N(C)C)CN(Cc1ccco1)C2.O=C(O)C(F)(F)F", "stereo": "stereo unspecified", "effect": 1.04}
{"smiles": "CCn1c(C)cc(C(=O)N2CCc3nnc(N)cc3C2)c1C", "effect": "-3.903 and -4.783 and -13.87"}
{"smiles": "[H][C@@]12COC[C@@H](Cc3nnc(C)o3)[C@]1([H])CN(c1cc(OC)ncn1)C2", "effect": -0.5063}
{"smiles": "CN(C)c1cc(C2CCCN(C(=O)c3ccc(=O)[nH]n3)C2)ccn1", "stereo": "stereo unspecified", "effect": -5.62}
{"smiles": "CSCCC(CO)NC(=O)c1ccc2[nH]/c(=N\\S(C)(=O)=O)sc2c1", "stereo": "stereo unspecified", "effect": -7.418}
{"smiles": "Cc1nc(CN2CCCC(NCCOc3cccc(C#N)c3)C2)no1", "stereo": "stereo unspecified", "effect": 10.55}
{"smiles": "Cc1ccc(CNC(=O)NCc2csc(C)n2)cn1", "effect": 8.964}
{"smiles": "Cc1nn(C)c(C)c1CCC(=O)N1CCCC(n2cccn2)C1", "stereo": "stereo unspecified", "effect": -2.521}
{"smiles": "c1ccc(CN2CCN(c3ccc4nncn4n3)CC2)nc1", "effect": -3.171}
{"smiles": "[H][C@@]12CN(C(=O)[C@H]3CCCO3)C[C@]1([H])C(=O)N(CC1CC1)C2", "effect": 2.539}
{"smiles": "CCc1nc(C2CCCN(C(=O)NC(C)C)C2)no1", "stereo": "stereo unspecified", "effect": 5.884}
{"smiles": "CN(C)c1cc(CNC(=O)c2ccc(F)cc2)ccn1", "effect": -5.625}
{"smiles": "Cc1cc(-c2nccs2)nc(C2CCN(Cc3ccccn3)CC2)n1", "effect": 3.893}
{"smiles": "CN(C)c1nccc(C2CCCCN2Cc2cnn3cccnc23)n1", "stereo": "stereo unspecified", "effect": 2.156}
{"smiles": "CS(=O)(=O)N1CCOCC2(CCN(C(=O)c3cccnc3)CC2)C1.O=C(O)C(F)(F)F", "effect": -22.54}
{"smiles": "O=C(c1cc(-c2ccc(O)cc2)n[nH]1)N1CCCC1c1cccnc1", "stereo": "stereo unspecified", "effect": -3.418}

For reference, 3 entries once more:

SMILES,effect
Cc1cnn(CC2CCCCN2C(=O)c2csc(C)n2)c1 (stereo unspecified),2.221%
Cc1nn(C)c(C)c1CCC(=O)N1CCCC(n2cccn2)C1 (stereo unspecified),-2.521%
Cn1cccc1C(=O)N1CCC2(CC1)CN(c1ccccn1)CCO2.O=C(O)C(F)(F)F,-18.32%

Data taken from ChEMBL document CHEMBL3988442, “University of Dundee, Small-Polar-MMV Screening Library” (2021).